# Primary screen of a compound library

Results are given as percent effect.
The controls that fix the scale are not given in the record; negative values are as filed.
The compounds are a random part of those screened.

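Assay of Toxoplasma gondii numbers, read through their beta-galactosidase reporter with a colour substrate. Concentration: 50 µM. The record gives no direction; the compounds picked for IC50 retests had high values, so higher reads as fewer parasites. About 18,000 compounds were tested under these conditions; 0.94% (about 170) showed 50% or more at least once.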

* CCN(CC)C(=O)Nc1cc(C(N)=O)ccc1C | -3.926%
* CN(C)[C@@H]1CN(C(=O)c2ncccn2)C[C@H]1CO | -3.971%
* COc1ccccc1CCC(=O)NCC(C)(C)C(N)=O | -2.2%
* CCCn1ncnc1-c1cccc(C#N)c1 | 11.62%
* Cc1cc(C)cc(OCC(=O)N2CCN[C@H](C)C2)c1 | -11.62%
* CN1CCN(C(=O)Nc2c(F)cc(F)cc2Br)CC1=O | -6.651%
* CN(Cc1ccc(S(C)(=O)=O)cc1)Cc1nccn1C | -7.348%
* COCCN(CCN)C(=O)OC(C)(C)C | -15.4%
* CCCn1ncnc1-c1ccc(C(N)=O)c(Cl)c1 | 3.084%
* O=C(CCN1CCCC(O)C1)Nc1ccccc1 (centres unmarked) | -6.551%
* CC(=O)NC(C(=O)N1CCc2ccccc21)C(C)C (centres unmarked) | -23.86%
* CS(=O)(=O)C1CCN(C(=O)NCCn2cccc2)C1 (centres unmarked) | 0.5674%
* c1cnn(CCN2CCNCC2)c1 | -5.021%
* Cc1c[nH]c(CN(C)Cc2ccc(N(C)C)nc2)n1 | -6.528%
* Cc1cc(C(=O)N2CCNCC2)ccc1F | -1.548%
* COc1ccnc(NC(=O)NCc2cccs2)c1 | -5.586%
* COCc1cc(CNC(=O)C(NC(C)=O)C(C)C)n[nH]1 (centres unmarked) | 2.318%
* O=C1CN(C(=O)c2cnc(-c3ccccc3)s2)CCN1 | -15.18%
* Cc1ccccc1C(=O)N1CCN(S(C)(=O)=O)[C@@H](C)C1 | 5.958%
* Cc1nc(C(=O)Nc2ccc(C(N)=O)cc2)co1 | -0.1422%
* NC(=O)NC(=O)CCn1cc(-c2ccccc2)cn1 | 13.21%
* Cc1n[nH]c(C)c1CNc1cc(C2CC(N)C2)ncn1 (centres unmarked) | -8.944%
* CC(=O)NCc1cccc(OCc2ccccn2)c1 | 53.39%
* CCn1ncc(C(C)N)c1C (centres unmarked) | 14.74%
* CCOC(=O)c1cnn(-c2ccc(OCC)cc2)c1N | -2.969%
* CNCc1ccc(N)nc1 | 63.11%
* CCN1C[C@H](NC(=O)c2ccc(CSC)o2)[C@@H](OC)C1 | -1.799%
* CN(C)S(=O)(=O)Nc1ccc2c(c1)C(=O)CCC2 | -8.853%
* O=C(c1ccc2c(c1)CCCC2)N1CCOCC1CO (centres unmarked) | -0.1274%
* CC(CCCO)NS(=O)(=O)c1ccccc1 (centres unmarked) | -12.41%
* CN(C)C(=O)CCNC(=O)Nc1cnn(C(C)(C)C)c1 | -6.698%
* Ic1nnnn1-c1ccccc1 | 34.93%
* CS(=O)(=O)N[C@H]1CN(c2ccncc2F)C[C@@H]1C1CC1 | 3.462%
* Cn1nccc1CCC(=O)N1CCCCC1CN (centres unmarked) | -5.324%

Once more, the final 3:

{"smiles": "Ic1nnnn1-c1ccccc1", "Percent Effect": 34.93}
{"smiles": "CS(=O)(=O)N[C@H]1CN(c2ccncc2F)C[C@@H]1C1CC1", "Percent Effect": 3.462}
{"smiles": "Cn1nccc1CCC(=O)N1CCCCC1CN", "stereo": "centres unmarked", "Percent Effect": -5.324}

The values are deposited in ChEMBL (CHEMBL3988442, “University of Dundee, Small-Polar-MMV Screening Library” (2021)).